± gives the standard deviation of the averaged measurements. The list shows a part of the results, in another mix than the full data. Most entries show no effect beyond the scatter of the controls.
Compound: Nc1ncnc2c1ncn2[C@@H]1O[C@H](COP(=O)(O)OP(=O)(O)NP(=O)(O)O)[C@@H](O)[C@H]1O [adenylyl imidodiphosphate]
Assay: NP40-soluble protein abundance relative to vehicle (solubility fold change) (ratio); higher = more soluble protein in presence of AMP-PNP
Method in brief: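 Jurkat crude lysate prepared with a Dounce homogeniser was treated at eight concentrations spanning 0.1 to 10 mM, 10 min at room temperature then 3 min at 37 °C. Solubilisation with 0.8% NP40 and benzonase and ultracentrifugation preceded TMT labelling of the supernatant for LC-MS/MS. Fold change against the detergent-processed vehicle was determined per replicate from vsn-normalised intensities, across three independent experiments.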

Amino acid sequences for entries named in this document (tags omitted). A change or cut given only in a name is not applied to a line headed by its entry.
UniProt Q8N999, whole entry: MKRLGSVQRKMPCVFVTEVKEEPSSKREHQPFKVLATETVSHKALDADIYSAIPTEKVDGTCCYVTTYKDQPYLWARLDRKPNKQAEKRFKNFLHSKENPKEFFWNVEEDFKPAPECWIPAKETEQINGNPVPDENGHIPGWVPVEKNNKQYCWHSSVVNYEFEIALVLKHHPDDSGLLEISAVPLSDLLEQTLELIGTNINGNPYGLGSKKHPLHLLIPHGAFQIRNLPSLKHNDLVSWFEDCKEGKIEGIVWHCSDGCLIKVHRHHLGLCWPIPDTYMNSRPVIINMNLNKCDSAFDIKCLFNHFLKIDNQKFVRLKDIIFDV
UniProt Q8N6T3: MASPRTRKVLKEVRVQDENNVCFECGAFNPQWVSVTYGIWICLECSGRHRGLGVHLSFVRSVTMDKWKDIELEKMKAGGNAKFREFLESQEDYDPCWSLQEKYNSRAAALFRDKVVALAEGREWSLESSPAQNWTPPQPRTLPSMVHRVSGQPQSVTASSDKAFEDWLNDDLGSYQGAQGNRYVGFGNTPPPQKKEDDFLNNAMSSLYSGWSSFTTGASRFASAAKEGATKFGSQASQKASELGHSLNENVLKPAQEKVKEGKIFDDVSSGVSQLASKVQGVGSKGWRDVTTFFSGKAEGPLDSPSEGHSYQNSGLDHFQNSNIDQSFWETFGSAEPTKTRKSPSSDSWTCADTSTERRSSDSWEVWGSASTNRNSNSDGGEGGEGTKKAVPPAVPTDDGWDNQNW
UniProt Q8NBF6: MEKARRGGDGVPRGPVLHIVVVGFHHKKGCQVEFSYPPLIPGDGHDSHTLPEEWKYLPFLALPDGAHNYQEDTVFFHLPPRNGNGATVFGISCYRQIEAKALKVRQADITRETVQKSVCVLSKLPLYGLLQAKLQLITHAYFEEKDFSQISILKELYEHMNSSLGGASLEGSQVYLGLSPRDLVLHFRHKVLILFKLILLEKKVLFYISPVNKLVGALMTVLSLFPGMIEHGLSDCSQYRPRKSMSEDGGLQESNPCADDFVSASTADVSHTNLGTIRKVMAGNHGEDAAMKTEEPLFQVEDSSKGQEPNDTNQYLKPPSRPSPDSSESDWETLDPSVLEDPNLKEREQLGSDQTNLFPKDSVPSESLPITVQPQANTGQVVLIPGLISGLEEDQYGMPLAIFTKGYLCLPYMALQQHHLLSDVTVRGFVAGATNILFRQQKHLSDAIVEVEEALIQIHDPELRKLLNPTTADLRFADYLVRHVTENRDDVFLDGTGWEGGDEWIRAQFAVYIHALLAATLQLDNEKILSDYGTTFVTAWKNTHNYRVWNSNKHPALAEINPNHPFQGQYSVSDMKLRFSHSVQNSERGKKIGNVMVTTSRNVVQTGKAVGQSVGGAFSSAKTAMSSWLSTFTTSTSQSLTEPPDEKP
UniProt Q7Z7L7: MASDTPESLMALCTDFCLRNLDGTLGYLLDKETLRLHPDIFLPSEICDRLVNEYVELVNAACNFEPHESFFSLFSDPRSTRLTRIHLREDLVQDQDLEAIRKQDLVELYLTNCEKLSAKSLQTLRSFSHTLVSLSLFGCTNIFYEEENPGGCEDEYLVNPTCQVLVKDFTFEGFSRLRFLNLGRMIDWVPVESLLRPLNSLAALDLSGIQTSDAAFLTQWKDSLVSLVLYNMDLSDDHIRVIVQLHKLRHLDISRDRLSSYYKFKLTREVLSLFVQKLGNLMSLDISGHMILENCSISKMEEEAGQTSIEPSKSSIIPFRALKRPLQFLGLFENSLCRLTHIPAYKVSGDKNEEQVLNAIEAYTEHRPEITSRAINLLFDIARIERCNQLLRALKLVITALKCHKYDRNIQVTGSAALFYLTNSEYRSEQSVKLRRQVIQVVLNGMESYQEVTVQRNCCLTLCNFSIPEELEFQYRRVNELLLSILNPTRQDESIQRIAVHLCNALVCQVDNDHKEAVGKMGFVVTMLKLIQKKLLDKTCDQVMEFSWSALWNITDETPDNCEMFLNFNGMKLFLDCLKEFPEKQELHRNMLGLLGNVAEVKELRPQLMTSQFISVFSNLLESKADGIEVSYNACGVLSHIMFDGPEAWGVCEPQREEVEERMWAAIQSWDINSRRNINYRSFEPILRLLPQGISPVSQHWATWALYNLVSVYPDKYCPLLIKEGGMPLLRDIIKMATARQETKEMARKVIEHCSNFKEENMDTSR
UniProt Q8IX90, whole entry: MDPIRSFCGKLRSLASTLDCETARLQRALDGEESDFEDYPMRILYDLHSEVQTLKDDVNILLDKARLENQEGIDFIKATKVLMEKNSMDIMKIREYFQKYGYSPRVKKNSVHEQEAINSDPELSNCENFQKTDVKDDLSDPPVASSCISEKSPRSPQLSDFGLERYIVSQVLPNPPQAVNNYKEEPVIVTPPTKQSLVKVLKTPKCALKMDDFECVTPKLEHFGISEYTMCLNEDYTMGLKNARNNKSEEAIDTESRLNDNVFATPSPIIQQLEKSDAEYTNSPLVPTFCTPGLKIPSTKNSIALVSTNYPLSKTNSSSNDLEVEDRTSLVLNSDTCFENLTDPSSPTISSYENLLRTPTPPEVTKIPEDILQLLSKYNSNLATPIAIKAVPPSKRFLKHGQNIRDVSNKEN
UniProt Q8IYB1: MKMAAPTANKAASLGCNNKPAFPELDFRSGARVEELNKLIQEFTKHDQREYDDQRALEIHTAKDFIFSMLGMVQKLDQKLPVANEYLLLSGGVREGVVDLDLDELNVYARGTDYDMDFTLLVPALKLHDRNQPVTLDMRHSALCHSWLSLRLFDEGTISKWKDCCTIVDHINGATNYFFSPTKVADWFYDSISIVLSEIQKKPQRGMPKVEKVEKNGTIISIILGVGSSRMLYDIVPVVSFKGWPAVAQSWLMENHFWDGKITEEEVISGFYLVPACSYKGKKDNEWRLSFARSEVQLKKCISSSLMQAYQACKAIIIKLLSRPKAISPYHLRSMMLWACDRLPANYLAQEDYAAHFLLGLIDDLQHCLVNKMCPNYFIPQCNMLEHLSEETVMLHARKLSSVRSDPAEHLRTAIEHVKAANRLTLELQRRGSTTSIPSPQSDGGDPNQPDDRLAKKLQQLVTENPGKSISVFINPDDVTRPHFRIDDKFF
UniProt Q86XI2: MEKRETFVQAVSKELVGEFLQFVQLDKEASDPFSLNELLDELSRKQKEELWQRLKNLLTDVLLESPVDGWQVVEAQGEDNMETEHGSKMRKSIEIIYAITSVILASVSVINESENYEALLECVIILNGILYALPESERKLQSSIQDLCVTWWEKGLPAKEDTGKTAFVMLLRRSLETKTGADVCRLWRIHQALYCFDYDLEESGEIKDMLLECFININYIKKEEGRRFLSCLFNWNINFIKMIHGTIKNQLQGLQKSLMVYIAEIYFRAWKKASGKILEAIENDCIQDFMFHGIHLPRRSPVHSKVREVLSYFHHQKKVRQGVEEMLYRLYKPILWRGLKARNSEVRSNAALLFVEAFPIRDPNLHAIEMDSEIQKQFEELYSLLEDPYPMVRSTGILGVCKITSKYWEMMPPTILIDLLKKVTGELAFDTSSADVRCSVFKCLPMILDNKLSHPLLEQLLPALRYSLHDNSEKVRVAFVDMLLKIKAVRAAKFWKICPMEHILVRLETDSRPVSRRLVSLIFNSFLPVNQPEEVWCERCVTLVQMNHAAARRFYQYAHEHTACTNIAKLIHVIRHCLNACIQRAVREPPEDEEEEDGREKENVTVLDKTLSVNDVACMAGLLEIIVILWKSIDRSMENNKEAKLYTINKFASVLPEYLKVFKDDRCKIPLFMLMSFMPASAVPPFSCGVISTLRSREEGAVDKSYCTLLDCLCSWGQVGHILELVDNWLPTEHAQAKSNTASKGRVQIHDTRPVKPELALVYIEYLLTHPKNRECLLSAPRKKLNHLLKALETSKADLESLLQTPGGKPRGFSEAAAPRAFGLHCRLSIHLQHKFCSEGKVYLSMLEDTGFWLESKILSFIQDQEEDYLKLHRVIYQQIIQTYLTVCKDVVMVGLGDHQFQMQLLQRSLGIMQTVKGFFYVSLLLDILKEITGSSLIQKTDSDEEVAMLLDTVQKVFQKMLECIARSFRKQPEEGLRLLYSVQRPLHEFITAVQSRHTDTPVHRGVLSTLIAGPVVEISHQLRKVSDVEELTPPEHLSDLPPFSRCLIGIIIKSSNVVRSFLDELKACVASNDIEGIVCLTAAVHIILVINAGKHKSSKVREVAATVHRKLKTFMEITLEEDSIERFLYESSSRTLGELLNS
UniProt Q8N6T7, whole entry: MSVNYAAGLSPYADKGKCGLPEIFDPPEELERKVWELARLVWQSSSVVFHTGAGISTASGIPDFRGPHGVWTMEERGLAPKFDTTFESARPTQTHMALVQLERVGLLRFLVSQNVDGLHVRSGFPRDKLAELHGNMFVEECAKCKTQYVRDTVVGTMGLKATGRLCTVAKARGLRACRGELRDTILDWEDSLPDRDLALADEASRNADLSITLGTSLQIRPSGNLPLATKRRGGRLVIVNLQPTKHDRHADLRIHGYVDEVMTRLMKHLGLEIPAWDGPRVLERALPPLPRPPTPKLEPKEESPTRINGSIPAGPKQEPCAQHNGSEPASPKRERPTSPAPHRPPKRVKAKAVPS
UniProt Q8N9M1: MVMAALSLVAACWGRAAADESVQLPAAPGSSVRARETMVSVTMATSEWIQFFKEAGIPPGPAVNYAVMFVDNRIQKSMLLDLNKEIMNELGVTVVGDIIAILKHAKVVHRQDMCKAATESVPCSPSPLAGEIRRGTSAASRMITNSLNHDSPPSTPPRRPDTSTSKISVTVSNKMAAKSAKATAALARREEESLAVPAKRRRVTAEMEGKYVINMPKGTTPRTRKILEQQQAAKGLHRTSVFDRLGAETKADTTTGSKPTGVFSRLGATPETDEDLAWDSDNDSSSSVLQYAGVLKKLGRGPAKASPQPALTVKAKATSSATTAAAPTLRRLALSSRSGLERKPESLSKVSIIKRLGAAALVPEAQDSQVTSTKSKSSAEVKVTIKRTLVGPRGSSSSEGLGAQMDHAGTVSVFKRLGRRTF
UniProt Q86YB8: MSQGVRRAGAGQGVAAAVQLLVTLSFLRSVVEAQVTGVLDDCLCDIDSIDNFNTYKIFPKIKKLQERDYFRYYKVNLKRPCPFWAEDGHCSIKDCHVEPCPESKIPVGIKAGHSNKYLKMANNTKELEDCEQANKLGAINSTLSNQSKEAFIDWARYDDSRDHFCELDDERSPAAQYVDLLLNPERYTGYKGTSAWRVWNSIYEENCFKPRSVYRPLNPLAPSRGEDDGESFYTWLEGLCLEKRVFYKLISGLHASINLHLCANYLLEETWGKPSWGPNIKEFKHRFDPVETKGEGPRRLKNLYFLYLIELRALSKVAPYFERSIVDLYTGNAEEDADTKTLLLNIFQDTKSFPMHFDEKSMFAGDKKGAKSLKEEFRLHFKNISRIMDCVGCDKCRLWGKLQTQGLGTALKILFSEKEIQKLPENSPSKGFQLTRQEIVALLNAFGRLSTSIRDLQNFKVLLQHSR
UniProt Q86U90: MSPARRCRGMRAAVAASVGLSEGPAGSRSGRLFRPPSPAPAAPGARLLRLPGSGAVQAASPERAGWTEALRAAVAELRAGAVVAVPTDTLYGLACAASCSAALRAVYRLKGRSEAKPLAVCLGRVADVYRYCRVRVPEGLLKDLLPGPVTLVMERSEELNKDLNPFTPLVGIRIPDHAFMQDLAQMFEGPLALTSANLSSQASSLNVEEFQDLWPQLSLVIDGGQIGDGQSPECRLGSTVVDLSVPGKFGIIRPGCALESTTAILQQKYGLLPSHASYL
UniProt Q8N108: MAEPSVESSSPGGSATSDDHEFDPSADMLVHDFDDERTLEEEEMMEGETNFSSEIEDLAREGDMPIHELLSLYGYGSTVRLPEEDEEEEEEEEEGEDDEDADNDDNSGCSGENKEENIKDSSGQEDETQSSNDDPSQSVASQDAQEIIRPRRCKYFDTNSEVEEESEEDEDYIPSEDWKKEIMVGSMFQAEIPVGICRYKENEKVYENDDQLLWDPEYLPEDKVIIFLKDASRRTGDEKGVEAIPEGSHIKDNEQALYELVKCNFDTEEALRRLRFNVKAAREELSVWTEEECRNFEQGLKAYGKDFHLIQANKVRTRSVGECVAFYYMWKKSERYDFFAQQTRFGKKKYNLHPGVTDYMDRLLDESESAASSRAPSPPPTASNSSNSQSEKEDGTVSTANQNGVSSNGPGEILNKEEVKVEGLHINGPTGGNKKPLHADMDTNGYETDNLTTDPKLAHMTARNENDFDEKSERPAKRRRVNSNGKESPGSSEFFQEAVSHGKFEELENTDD
UniProt Q8N4L2: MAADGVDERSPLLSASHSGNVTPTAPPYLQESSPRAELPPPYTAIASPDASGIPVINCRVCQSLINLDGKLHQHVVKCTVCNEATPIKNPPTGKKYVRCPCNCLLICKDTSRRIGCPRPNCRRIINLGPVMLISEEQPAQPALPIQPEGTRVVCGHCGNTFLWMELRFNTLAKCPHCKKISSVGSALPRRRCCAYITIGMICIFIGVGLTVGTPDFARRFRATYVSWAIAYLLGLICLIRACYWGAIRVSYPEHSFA

Target	NP40-soluble protein abundance (concentration: 0.1mM)	NP40-soluble protein abundance (concentration: 0.5mM)
UniProt Q86UY6	1.01 ± 0.039	1.01 ± 0.053
C12orf29 (UniProt Q8N999)	0.97 ± 0.022	0.992 ± 0.024
ARFGAP1 (UniProt Q8N6T3)	0.997 ± 0.031	1 ± 0.042
CMIP (UniProt Q8IY22)	0.997 ± 0.021	0.987 ± 0.02
UniProt Q8NBF6 and related entries	0.979 ± 0.02	0.981 ± 0.023
UniProt Q8IY17 and related entries	1.03 ± 0.024	1.03 ± 0.051
UniProt Q7Z7L7	1.0216 ± 6.4e-05	1.05 ± 0.016
UniProt Q8N8K9-2|Q8N8K9-3	0.961 ± 0.045	0.975 ± 0.063
UniProt Q8IX90	1.016 ± 0.005	1.03 ± 0.038
UniProt Q8N4N3 and related entries	1.01 ± 0.043	0.968 ± 0.019
SRBD1 (UniProt Q8N5C6)	0.985 ± 0.025	0.992 ± 0.054
UniProt Q8IYB1	0.998 ± 0.036	1.01 ± 0.027
UniProt Q86XI2 and related entries	1 ± 0.025	0.981 ± 0.052
UniProt Q8N6T7 and related entries	0.977 ± 0.023	0.908 ± 0.019
GCC2 (UniProt Q8IWJ2)	0.985 ± 0.023	0.992 ± 0.038
UniProt Q86Y56	1.04 ± 0.011	1.02 ± 0.031
UniProt Q8N9M1 and related entries	0.997 ± 0.03	0.989 ± 0.04
UniProt Q7Z7A1 and related entries	0.969 ± 0.043	0.979 ± 0.034
UniProt Q8N5M1 and related entries	1.02 ± 0.056	0.963 ± 0.078
TMEM173 (UniProt Q86WV6)	1.01 ± 0.029	0.9951 ± 0.0055
UniProt Q86YB8	0.984 ± 0.025	0.9849 ± 0.0072
YRDC (UniProt Q86U90)	0.996 ± 0.051	1.03 ± 0.029
UniProt Q8N108 and related entries	0.966 ± 0.026	0.992 ± 0.022
UniProt Q8N4L2 and related entries	0.978 ± 0.0031	0.995 ± 0.018
EHBP1L1 (UniProt Q8N3D4)	1.022 ± 0.0084	1.01 ± 0.068
UniProt Q8N684 and related entries	0.9843 ± 0.0051	1 ± 0.049
UniProt Q8IU60 and related entries	0.981 ± 0.04	0.99 ± 0.035
ISCA2 (UniProt Q86U28)	1.09 ± 0.054	0.997 ± 0.037
UniProt Q7Z7A3	1.01 ± 0.027	1.012 ± 0.0056
UniProt Q8N766 and related entries	1.01 ± 0.02	0.987 ± 0.044

Part of the list above, reformatted:
Target,NP40-soluble protein abundance (concentration: 0.1mM),NP40-soluble protein abundance (concentration: 0.5mM)
UniProt Q7Z7A1 and related entries,0.969 ± 0.043,0.979 ± 0.034
UniProt Q8N5M1 and related entries,1.02 ± 0.056,0.963 ± 0.078
TMEM173 (UniProt Q86WV6),1.01 ± 0.029,0.9951 ± 0.0055
UniProt Q86YB8,0.984 ± 0.025,0.9849 ± 0.0072
YRDC (UniProt Q86U90),0.996 ± 0.051,1.03 ± 0.029
UniProt Q8N108 and related entries,0.966 ± 0.026,0.992 ± 0.022
